Measured values taken from paper PMC8610992.
No constants are given. Whether binding was seen depends on the method and setting. In cells and extracts the contact can be indirect. Here binding means that the protein was enriched with, or labelled near, the bait; the list need not be complete. Values belong to the molecule of their own block, whether it stands above or below them.

By UniProt entry, the sequences of proteins in these tests, tags left out.
UniProt Q8TEW0: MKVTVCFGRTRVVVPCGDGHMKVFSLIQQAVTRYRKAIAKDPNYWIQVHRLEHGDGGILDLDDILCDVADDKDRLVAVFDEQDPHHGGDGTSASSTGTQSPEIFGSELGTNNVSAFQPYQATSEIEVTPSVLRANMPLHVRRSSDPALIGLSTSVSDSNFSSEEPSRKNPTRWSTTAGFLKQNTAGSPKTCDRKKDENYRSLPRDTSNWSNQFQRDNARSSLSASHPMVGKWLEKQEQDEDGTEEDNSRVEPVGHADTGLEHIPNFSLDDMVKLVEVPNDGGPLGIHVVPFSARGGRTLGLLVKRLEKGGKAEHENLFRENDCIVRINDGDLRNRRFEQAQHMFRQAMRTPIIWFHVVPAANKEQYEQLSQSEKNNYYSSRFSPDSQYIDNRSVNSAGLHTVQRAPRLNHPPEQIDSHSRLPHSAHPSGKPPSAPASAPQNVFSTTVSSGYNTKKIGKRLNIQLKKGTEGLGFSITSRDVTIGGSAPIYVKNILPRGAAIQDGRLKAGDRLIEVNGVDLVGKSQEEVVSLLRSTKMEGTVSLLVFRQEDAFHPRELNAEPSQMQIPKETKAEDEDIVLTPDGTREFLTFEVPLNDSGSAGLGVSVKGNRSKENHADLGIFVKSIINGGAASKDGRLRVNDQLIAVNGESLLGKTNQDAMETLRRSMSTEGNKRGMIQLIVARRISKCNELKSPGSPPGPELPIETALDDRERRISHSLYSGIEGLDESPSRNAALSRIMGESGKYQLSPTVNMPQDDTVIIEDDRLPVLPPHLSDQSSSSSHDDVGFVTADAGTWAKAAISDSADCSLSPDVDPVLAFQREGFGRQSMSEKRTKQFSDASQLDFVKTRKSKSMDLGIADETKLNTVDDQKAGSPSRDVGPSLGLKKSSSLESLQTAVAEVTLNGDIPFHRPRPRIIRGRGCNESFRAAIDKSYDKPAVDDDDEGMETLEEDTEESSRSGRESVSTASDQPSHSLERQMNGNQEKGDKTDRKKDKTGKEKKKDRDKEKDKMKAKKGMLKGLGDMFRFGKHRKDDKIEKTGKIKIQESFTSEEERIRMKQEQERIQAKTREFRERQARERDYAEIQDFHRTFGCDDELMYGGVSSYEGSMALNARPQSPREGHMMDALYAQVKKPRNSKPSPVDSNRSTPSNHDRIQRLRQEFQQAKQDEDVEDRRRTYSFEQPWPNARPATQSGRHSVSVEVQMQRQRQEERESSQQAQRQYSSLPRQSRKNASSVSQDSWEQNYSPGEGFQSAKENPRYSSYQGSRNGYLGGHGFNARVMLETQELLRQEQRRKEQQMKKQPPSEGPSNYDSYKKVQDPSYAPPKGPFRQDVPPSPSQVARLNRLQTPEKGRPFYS
UniProt Q86YZ3: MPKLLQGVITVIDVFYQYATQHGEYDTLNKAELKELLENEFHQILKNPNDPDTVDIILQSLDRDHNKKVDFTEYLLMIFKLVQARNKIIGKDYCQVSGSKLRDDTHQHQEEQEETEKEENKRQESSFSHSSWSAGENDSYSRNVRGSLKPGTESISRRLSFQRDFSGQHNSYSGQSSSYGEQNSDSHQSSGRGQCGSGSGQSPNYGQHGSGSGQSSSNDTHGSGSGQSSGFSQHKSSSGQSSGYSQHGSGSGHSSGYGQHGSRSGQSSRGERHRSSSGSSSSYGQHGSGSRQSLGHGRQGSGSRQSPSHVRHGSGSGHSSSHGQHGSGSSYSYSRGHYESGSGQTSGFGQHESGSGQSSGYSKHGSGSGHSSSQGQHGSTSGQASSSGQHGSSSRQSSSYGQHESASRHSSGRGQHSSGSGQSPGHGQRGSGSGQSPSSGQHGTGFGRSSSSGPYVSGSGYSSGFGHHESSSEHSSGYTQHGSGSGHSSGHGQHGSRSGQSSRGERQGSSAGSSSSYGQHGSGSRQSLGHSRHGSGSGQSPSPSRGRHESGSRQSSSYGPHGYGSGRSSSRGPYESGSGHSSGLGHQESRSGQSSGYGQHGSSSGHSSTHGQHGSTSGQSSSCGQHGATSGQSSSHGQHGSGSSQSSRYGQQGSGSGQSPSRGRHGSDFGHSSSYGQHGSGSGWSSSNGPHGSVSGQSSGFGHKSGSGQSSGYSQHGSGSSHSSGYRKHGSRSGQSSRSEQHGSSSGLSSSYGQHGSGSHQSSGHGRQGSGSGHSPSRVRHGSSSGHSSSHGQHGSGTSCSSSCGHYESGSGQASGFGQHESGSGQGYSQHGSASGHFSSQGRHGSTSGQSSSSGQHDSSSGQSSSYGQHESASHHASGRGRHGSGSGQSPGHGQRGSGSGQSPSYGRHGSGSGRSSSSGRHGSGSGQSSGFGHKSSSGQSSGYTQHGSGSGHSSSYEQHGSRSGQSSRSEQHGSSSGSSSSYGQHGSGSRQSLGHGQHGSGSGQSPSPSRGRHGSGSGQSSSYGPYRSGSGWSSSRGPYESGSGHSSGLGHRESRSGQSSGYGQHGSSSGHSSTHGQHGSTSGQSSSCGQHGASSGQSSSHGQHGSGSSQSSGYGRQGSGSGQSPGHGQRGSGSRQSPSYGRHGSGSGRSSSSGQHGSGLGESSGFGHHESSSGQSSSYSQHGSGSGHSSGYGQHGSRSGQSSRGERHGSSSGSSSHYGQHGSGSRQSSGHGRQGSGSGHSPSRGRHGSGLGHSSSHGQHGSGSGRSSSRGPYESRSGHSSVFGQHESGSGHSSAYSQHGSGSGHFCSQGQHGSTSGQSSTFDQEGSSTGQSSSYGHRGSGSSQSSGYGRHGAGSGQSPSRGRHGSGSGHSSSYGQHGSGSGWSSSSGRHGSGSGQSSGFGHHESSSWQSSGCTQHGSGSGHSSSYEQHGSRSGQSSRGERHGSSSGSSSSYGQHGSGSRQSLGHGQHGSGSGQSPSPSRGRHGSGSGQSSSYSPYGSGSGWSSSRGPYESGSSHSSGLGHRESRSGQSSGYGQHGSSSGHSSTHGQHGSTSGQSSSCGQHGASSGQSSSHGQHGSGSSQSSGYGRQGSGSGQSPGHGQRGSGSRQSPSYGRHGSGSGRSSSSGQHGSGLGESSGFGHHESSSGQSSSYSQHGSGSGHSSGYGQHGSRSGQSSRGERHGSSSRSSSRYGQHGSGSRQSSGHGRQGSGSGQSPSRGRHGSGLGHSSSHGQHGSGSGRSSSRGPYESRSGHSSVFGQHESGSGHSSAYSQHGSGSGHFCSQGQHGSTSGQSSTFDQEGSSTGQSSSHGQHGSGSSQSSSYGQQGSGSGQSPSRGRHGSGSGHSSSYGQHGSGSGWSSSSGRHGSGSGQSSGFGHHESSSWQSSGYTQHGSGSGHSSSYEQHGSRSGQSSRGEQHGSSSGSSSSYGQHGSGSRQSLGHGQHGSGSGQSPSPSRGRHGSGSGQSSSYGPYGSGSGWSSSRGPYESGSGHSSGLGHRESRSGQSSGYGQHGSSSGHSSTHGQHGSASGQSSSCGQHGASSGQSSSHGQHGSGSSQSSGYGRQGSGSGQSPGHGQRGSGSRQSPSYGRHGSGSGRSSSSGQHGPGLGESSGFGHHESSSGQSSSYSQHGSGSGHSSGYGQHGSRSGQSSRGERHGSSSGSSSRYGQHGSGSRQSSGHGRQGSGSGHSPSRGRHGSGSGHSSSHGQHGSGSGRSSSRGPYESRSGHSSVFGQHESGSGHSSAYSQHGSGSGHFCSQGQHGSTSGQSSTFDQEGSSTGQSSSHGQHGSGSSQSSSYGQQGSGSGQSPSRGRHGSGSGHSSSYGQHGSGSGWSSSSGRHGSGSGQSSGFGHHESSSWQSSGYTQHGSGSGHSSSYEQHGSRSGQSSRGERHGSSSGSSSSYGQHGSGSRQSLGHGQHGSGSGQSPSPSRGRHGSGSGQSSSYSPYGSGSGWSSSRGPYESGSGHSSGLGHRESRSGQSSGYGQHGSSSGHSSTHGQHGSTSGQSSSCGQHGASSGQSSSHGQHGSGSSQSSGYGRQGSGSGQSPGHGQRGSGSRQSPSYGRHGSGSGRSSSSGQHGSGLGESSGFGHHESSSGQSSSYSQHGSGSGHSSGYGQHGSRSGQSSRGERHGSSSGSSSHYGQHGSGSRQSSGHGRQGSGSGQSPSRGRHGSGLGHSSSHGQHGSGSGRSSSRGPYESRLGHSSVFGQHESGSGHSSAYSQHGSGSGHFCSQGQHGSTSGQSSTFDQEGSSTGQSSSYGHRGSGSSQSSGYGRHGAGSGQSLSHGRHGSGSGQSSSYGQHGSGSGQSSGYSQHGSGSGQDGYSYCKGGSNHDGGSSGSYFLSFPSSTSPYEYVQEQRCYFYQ
UniProt P60953: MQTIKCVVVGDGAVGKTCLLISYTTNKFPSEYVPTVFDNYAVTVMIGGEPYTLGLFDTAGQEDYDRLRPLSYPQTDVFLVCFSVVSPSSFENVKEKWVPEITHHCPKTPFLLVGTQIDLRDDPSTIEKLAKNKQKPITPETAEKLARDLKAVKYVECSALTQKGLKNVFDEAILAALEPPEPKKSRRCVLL

Legend:
BirA*-PAR6B [1] = target: T1, BirA*-PAR6B (UniProt Q9BYG5); assay: proximity labelling; BioID: streptavidin pull-down from 2D and 3D Caco-2 cells expressing BirA*-PAR6B or BirA*-mCherry, immunoblot
T1 sequence: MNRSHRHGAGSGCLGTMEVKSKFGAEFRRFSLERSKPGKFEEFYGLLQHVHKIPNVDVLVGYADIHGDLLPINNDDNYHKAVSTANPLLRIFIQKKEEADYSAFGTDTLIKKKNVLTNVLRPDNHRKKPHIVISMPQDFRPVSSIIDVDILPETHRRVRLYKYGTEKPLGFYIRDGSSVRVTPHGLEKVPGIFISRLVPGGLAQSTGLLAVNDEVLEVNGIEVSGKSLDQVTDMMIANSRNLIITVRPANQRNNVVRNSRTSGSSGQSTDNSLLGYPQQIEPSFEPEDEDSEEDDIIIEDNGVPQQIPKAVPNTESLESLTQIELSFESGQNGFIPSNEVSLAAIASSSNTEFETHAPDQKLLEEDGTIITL

BirA*-PAR6B [2] = target: T1, BirA*-PAR6B; assay: proximity labelling; BioID: BirA*-PAR6B in Caco-2 cells, 3D suspension cysts and 2D on plastic, 50 uM biotin for 48 h, RIPA lysis, streptavidin beads, mass spectrometry; control BirA*-mCherry; triplicates

Molecule: PARD3 (from UniProt Q8TEW0 1-1356)
- binding (BirA*-PAR6B [1]): binds
- binding (BirA*-PAR6B [2]): binds

Molecule: HRNR (Hornerin) (from UniProt Q86YZ3 1-2850)
- binding (BirA*-PAR6B [2]): binds

Molecule: CDC42 (from UniProt P60953 1-191)
- binding (BirA*-PAR6B [2]): binds

B5: LLGL1 (protein, UniProt Q15334 1-1064)
chain: MMKFRFRRQGADPQREKLKQELFAFNKTVEHGFPNQPSALAFDPELRIMAIGTRSGAVKIYGAPGVEFTGLHRDAATVTQMHFLTGQGRLLSLLDDSSLHLWEIVHHNGCAHLEEALSFQLPSRPGFDGASAPLSLTRVTVVLLVAASDIAALGTEGSSVFFLDVTTLTLLEGQTLAPGEVLRSVPDDYRCGKALGPVESLQGHLRDPTKILIGYSRGLLVIWNQASQCVDHIFLGNQQLESLCWGRDSSTVVSSHSDGSYAVWSVDAGSFPTLQPTVATTPYGPFPCKAINKILWRNCESGGHFIIFSGGMPRASYGDRHCVSVLRAETLVTLDFTSRIIDFFTVHSTRPEDEFDDPQALAVLLEEELVVLDLQTPGWPAVPAPYLAPLHSSAITCSAHVASVPAKLWARIVSAGEQQSPQPVSSALSWPITGGRNLAQEPSQRGLLLTGHEDGTVRFWDASGVALRPLYKLSTAGLFQTDCEHADSLAQAAEDDWPPFRKVGCFDPYSDDPRLGVQKVALCKYTAQMVVAGTAGQVLVLELSDVPVEQAVSVAIIDLLQDREGFTWKGHERLSPRTGPLPWPAGFQPRVLVQCLPPAAVTAVTLHTEWSLVAFGTSHGFGLFDYQRKSPVLARCTLHPNDSLAMEGPLSRVKSLKKSLRQSFRRIRKSRVSGKKRAANASSKLQEANAQLAEQACPHDVEMTPVQRRIEPRSADDSLSGVVRCLYFADTFLRDGAHHGPTMWAGTNSGSVFAYALEVPAAAVGGEKRPEQAVEAVLGKEVQLMHRAPVVAIAVLDGRGRPLPEPYEASRDLAQAPDMQGGHAVLIASEEQFKVFTLPKVSAKTKFKLTAHEGCRVRKVALATFASVACEDYAETCLACLTNLGDVHVFSVPGLRPQVHYSCIRKEDISGIASCVFTRHGQGFYLISPSEFERFSLSARNITEPLCSLDINWPRDATQASYRIRESPKLSQANGTPSILLAPQSLDGSPDPAHSMGPDTPEPPEAALSPMSIDSATSADTTLDTTGDVTVEDVKDFLGSSEESEKNLRNLAEDEAHACAILIK
- binding (BirA*-PAR6B [2]): binds

The next lines start with the values.

- binding (BirA*-PAR6B [2]): binds
Molecule: SQSTM1/p62 (from UniProt Q13501 1-440)

- binding (BirA*-PAR6B [2]): binds
B1: RALB (protein, UniProt P11234 1-206)
chain: MAANKSKGQSSLALHKVIMVGSGGVGKSALTLQFMYDEFVEDYEPTKADSYRKKVVLDGEEVQIDILDTAGQEDYAAIRDNYFRSGEGFLLVFSITEHESFTATAEFREQILRVKAEEDKIPLLVVGNKSDLEERRQVPVEEARSKAEEWGVQYVETSAKTRANVDKVFFDLMREIRTKKMSENKDKNGKKSSKNKKSFKERCCLL

- binding (BirA*-PAR6B [1]): binds
- binding (BirA*-PAR6B [2]): binds
B2: PRKCZ (protein, UniProt Q05513 1-592)
chain: MPSRTGPKMEGSGGRVRLKAHYGGDIFITSVDAATTFEELCEEVRDMCRLHQQHPLTLKWVDSEGDPCTVSSQMELEEAFRLARQCRDEGLIIHVFPSTPEQPGLPCPGEDKSIYRRGARRWRKLYRANGHLFQAKRFNRRAYCGQCSERIWGLARQGYRCINCKLLVHKRCHGLVPLTCRKHMDSVMPSQEPPVDDKNEDADLPSEETDGIAYISSSRKHDSIKDDSEDLKPVIDGMDGIKISQGLGLQDFDLIRVIGRGSYAKVLLVRLKKNDQIYAMKVVKKELVHDDEDIDWVQTEKHVFEQASSNPFLVGLHSCFQTTSRLFLVIEYVNGGDLMFHMQRQRKLPEEHARFYAAEICIALNFLHERGIIYRDLKLDNVLLDADGHIKLTDYGMCKEGLGPGDTTSTFCGTPNYIAPEILRGEEYGFSVDWWALGVLMFEMMAGRSPFDIITDNPDMNTEDYLFQVILEKPIRIPRFLSVKASHVLKGFLNKDPKERLGCRPQTGFSDIKSHAFFRSIDWDLLEKKQALPPFQPQITDDYGLDNFDTQFTSEPVQLTPDDEDAIKRIDQSEFEGFEYINPLLLSTEESV

- binding (BirA*-PAR6B [2]): binds
B3: TP53BP2/ASPP2 (protein, UniProt Q13625 1-1128)
chain: MMPMFLTVYLSNNEQHFTEVPVTPETICRDVVDLCKEPGESDCHLAEVWCGSERPVADNERMFDVLQRFGSQRNEVRFFLRHERPPGRDIVSGPRSQDPSLKRNGVKVPGEYRRKENGVNSPRMDLTLAELQEMASRQQQQIEAQQQLLATKEQRLKFLKQQDQRQQQQVAEQEKLKRLKEIAENQEAKLKKVRALKGHVEQKRLSNGKLVEEIEQMNNLFQQKQRELVLAVSKVEELTRQLEMLKNGRIDSHHDNQSAVAELDRLYKELQLRNKLNQEQNAKLQQQRECLNKRNSEVAVMDKRVNELRDRLWKKKAALQQKENLPVSSDGNLPQQAASAPSRVAAVGPYIQSSTMPRMPSRPELLVKPALPDGSLVIQASEGPMKIQTLPNMRSGAASQTKGSKIHPVGPDWSPSNADLFPSQGSASVPQSTGNALDQVDDGEVPLREKEKKVRPFSMFDAVDQSNAPPSFGTLRKNQSSEDILRDAQVANKNVAKVPPPVPTKPKQINLPYFGQTNQPPSDIKPDGSSQQLSTVVPSMGTKPKPAGQQPRVLLSPSIPSVGQDQTLSPGSKQESPPAAAVRPFTPQPSKDTLLPPFRKPQTVAASSIYSMYTQQQAPGKNFQQAVQSALTKTHTRGPHFSSVYGKPVIAAAQNQQQHPENIYSNSQGKPGSPEPETEPVSSVQENHENERIPRPLSPTKLLPFLSNPYRNQSDADLEALRKKLSNAPRPLKKRSSITEPEGPNGPNIQKLLYQRTTIAAMETISVPSYPSKSASVTASSESPVEIQNPYLHVEPEKEVVSLVPESLSPEDVGNASTENSDMPAPSPGLDYEPEGVPDNSPNLQNNPEEPNPEAPHVLDVYLEEYPPYPPPPYPSGEPEGPGEDSVSMRPPEITGQVSLPPGKRTNLRKTGSERIAHGMRVKFNPLALLLDSSLEGEFDLVQRIIYEVDDPSLPNDEGITALHNAVCAGHTEIVKFLVQFGVNVNAADSDGWTPLHCAASCNNVQVCKFLVESGAAVFAMTYSDMQTAADKCEEMEEGYTQCSQFLYGVQEKMGIMNKGVIYALWDYEPQNDDELPMKEGDCMTIIHREDEDEIEWWWARLNDKEGYVPRNLLGLYPRIKPRQRSLA

- binding (BirA*-PAR6B [2]): binds
B4: PTPN14 (protein, UniProt Q15678 1-1187)
chain: MPFGLKLRRTRRYNVLSKNCFVTRIRLLDSNVIECTLSVESTGQECLEAVAQRLELRETHYFGLWFLSKSQQARWVELEKPLKKHLDKFANEPLLFFGVMFYVPNVSWLQQEATRYQYYLQVKKDVLEGRLRCTLDQVIRLAGLAVQADFGDYNQFDSQDFLREYVLFPMDLALEEAVLEELTQKVAQEHKAHSGILPAEAELMYINEVERLDGFGQEIFPVKDNHGNCVHLGIFFMGIFVRNRIGRQAVIYRWNDMGNITHNKSTILVELINKEETALFHTDDIENAKYISRLFATRHKFYKQNKICTEQSNSPPPIRRQPTWSRSSLPRQQPYILPPVHVQCGEHYSETHTSQDSIFHGNEEALYCNSHNSLDLNYLNGTVTNGSVCSVHSVNSLNCSQSFIQASPVSSNLSIPGSDIMRADYIPSHRHSAIIVPSYRPTPDYETVMRQMKRGILHTDSQSQSLRNLNIINTHAYNQPEDLVYSQPEMRERHPYTVPYGPQGVYSNKLVSPSDQRNPKNNVVPSKPGASAISHTVSTPELANMQLQGSHNYSTAHMLKNYLFRPPPPYPRPRPATSTPDLASHRHKYVSGSSPDLVTRKVQLSVKTFQEDSSPVVHQSLQEVSEPLTATKHHGTVNKRHSLEVMNSMVRGMEAMTLKSLHLPMARRNTLREQGPPEEGSGSHEVPQLPQYHHKKTFSDATMLIHSSESEEEEEEAPESVPQIPMLREKMEYSAQLQAALARIPNKPPPEYPGPRKSVSNGALRQDQASLPPAMARARVLRHGPAKAISMSRTDPPAVNGASLGPSISEPDLTSVKERVKKEPVKERPVSEMFSLEDSIIEREMMIRNLEKQKMAGLEAQKRPLMLAALNGLSVARVSGREENRVDATRVPMDERFRTLKKKLEEGMVFTEYEQIPKKKANGIFSTAALPENAERSRIREVVPYEENRVELIPTKENNTGYINASHIKVVVGGAEWHYIATQGPLPHTCHDFWQMVWEQGVNVIAMVTAEEEGGRTKSHRYWPKLGSKHSSATYGKFKVTTKFRTDSVCYATTGLKVKHLLSGQERTVWHLQYTDWPDHGCPEDVQGFLSYLEEIQSVRRHTNSMLEGTKNRHPPIVVHCSAGVGRTGVLILSELMIYCLEHNEKVEVPMMLRLLREQRMFMIQTIAQYKFVYQVLIQFLQNSRLI
